Results taken from article PMC9232636, “Insights into the mechanism of action of the arbitrium communication system in SPbeta phages” (Nature Communications, 2022).

System: aimX-box^Phi
Assay: EMSA, AimR binding to aimX operator
Set-up: species or system phage phi3T
Details: 50 mM tris pH8, 250 mM NaCl, repeated independently three times

B1: AimR^SPβ-I: AimR^SPβ receptor without tags (protein)
chain: MELIRIAMKKDLENDNSLMNKWATVAGLKNPNPLYDFLNHDGKTFNEFSSIVNIVKSQYPDREYELMKDYCLNLDVKTKAARSALEYADANMFFEIEDVLIDSMISCSNMKSKEYGKVYKIHRELSNSVITEFEAVKRLGKLNIKTPEMNSFSRLLLLYHYLSTGNFSPMAQLIKQIDLSEISENMYIRNTYQTRVHVLMSNIKLNENSLEECREYSKKALESTNILRFQVFSYLTIGNSLLFSNYELAQENFLKGLSISVQNENYNMIFQQALCFLNNVWRKENKWINFESDSIMDLQEQAHCFINFNENSKAKEVLDKLDLLVHNDNELAMHYYLKGRLEQNKACFYSSIEYFKKSNDKFLIRLPLLELQKMGENQKLLELLLL
In the case of B1, the recognition of operator is reported as “not the operator for phage phi3T; also recorded: neither recognised the AimR-binding box from phage phi3T”.

Entries after “also recorded” stand apart in the source; their conditions may differ.
